Experimental data reported in PubChem BioAssay AID1347076 (National Center for Advancing Translational Sciences (NCATS), 2019).
Among all 400,000 compounds or so, about 13,000 (3.2%) were called active. Inconclusive results, whose numbers are uncertain, are shown with a selection of clear calls. The call rests on the fitted dose curve; in most records, active means well fitted cell-killing curve with a large enough effect; inconclusive means small, poorly fitted or top-dose-only effect, or effect the other way; inactive means flat fitted curve, though single readings scatter. Potencies of inconclusive entries are doubtful fits and often do not repeat.

Test: qHTS assay for MDR1-selective chemotherapeutics: Primary screen using the drug-selected MDR subline cells KB-V1; further: nearly all actives have a fitted effect of over 60% in size
Details: KB-V1 MDR cells viability, CellTiter-Glo, 72 h; series mostly up to 46.1 µM
Procedure, shortened: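 Cells of the MDR subline KB-V1 are plated, dosed with compound at multiple concentrations, and incubated 72 h at 37 degrees C; CellTiter-Glo is then added and luminescence read after 10 min.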
Potency means the concentration at half of the fitted maximal effect.

| Compound | Potency |
| --- | --- |
| O=C(Cc1ccccc1)N1CCN(Cc2cccc(Cl)c2)CC1 | inactive |
| Cc1ccc(OP(N)(=O)Oc2ccc(C)cc2)cc1 | inconclusive: 10.3 µM [rising, partial curve, poor fit] |
| O=C1NC2C(=CC(O)C(O)C2O)c2cc3c(c(O)c21)OCO3 (stereo unspecified) | inconclusive: 0.146 µM [cytotoxic, full curve, poor fit] |
| CSc1ccc(C(=O)C2CCCN(Cc3cccnc3)C2)cc1 (stereo unspecified) | inconclusive: 2.31 µM [cytotoxic, partial curve, poor fit] |
| O=C(NC1(C(F)(F)F)Oc2ccc(Cl)cc2O1)N1CCC2(CC1)OCCO2 (stereo unspecified) | inconclusive: 23.1 µM [cytotoxic, single point] |
| Fc1ccc(C(OCCN2CCN(CCCc3ccccc3)CC2)c2ccc(F)cc2)cc1 | active: 16.4 µM |
| COC(=O)C[C@]1(C(=O)OC)CN(C#N)N(c2ccc(Cl)cc2)C12c1ccccc1-c1ccccc12 | active: 5.8 µM |
| Cc1nn(-c2ccccc2)c2c1C(c1ccc3c(c1)OCO3)SCC(=O)N2 (stereo unspecified) | inconclusive: 20.6 µM [cytotoxic, partial curve] |
| CCCOP(=O)(OCCC)C(NC(=O)c1cc(OC)c(OC)c(OC)c1)c1ccccc1 (stereo unspecified) | inconclusive: 7.31 µM [cytotoxic, partial curve] |
| CCOC(=O)c1sc(/N=C/c2c(O)n(-c3cccc(C)c3)c(=O)[nH]c2=O)c(C#N)c1C | active: 20.6 µM |
| O=C(O)Cn1cc(C(=O)c2ccccc2F)c2ccccc21 | inconclusive: 18.4 µM [rising, partial curve] |
| O=C(Cn1cc(C(=O)c2ccccc2)c2ccccc21)NCc1ccco1 | inconclusive: 29.1 µM [cytotoxic, single point] |
| CCCCCn1c(=O)c(C(=O)Nc2c(C)n(C)n(-c3ccccc3)c2=O)c(O)c2ccccc21 | active: 2.06 µM |
| COc1ccc2c(c1OC)CN1CCc3cc4c(cc3[C@H]1C2)OCO4 | inactive |
| Nc1cc(C(=O)Nc2ccccc2F)ccc1N1CC2CC(C1)c1cccc(=O)n1C2 (stereo unspecified) | inactive |
| CN1C2CCC1CC(OC(=O)c1ccc(Cl)cc1)C2 (stereo unspecified) | inactive |
| COC(=O)C(c1ccccc1)N1CCCCCC1 (stereo unspecified) | inconclusive: 29.1 µM [rising, single point] |
| Oc1ccc2c3c1OC1c4oc5ccccc5c4C[C@@]4(O)[C@@H](C2)N(CC2CC2)CC[C@]314 (stereo partly specified) | inconclusive: 25.9 µM [cytotoxic, single point] |
| Cc1cccc(-c2nn3c(=O)cc(CN4CCN(C(=O)COc5ccc(Cl)cc5)CC4)nc3s2)c1 | inactive |
| O=c1c2ccccc2nc(-c2ccccc2)n1-c1ccccc1 | inconclusive: 16.4 µM [cytotoxic, single point] |
| CCOc1ccc(-c2cc(C(=O)N3CCC4(CC3)OCCO4)c3ccccc3n2)cc1 | inactive |
| Cc1ccc(-c2nc(N(C)C3CCN(C)CC3)c3ccccc3n2)cc1 | active: 20.6 µM |
| COC(=O)C1=C(c2ccc(S(C)(=O)=O)cc2)C[C@@H]2CC[C@H]1N2C(=O)NCc1ccccc1 | inconclusive: 20.6 µM [rising, single point] |

Random excerpt: two records from the list, in no set order.

| Compound | Potency |
| --- | --- |
| CCOc1ccc(-c2cc(C(=O)N3CCC4(CC3)OCCO4)c3ccccc3n2)cc1 | inactive |
| O=C(NC1(C(F)(F)F)Oc2ccc(Cl)cc2O1)N1CCC2(CC1)OCCO2 (stereo unspecified) | inconclusive: 23.1 µM [cytotoxic, single point] |

The results go on:

| Compound | Potency |
| --- | --- |
| CN1C[C@H](CO)C=C2c3cccc4[nH]cc(c34)C[C@H]21 | inactive |
| CCc1nc(SC)ncc1C(=O)Nc1ccc(Cl)cc1C(=O)c1ccccc1 | inactive |
| CC(OC(=O)c1cn(C)c2ccccc12)C(=O)N(C)c1ccccc1 (stereo unspecified) | inconclusive: 10.3 µM [cytotoxic, partial curve, poor fit] |
| C=C1N2CCC(CC2)C1(O)c1ccc(C)cc1 (stereo unspecified) | inactive |
| CC(=O)NNC(=O)CN1C(=O)CN=C(c2ccccc2)c2cc(Br)ccc21 | inactive |
| ClCCN(CCCl)c1ccc(C2=NCCc3ccccc32)cc1 | inconclusive: 18.4 µM [cytotoxic, single point] |
| N#CCCn1cc(C=C2C(=O)NC(=O)NC2=O)c(-c2ccccc2)n1 | inconclusive: 0.206 µM [rising, full curve] |
| CCOC(=O)[C@]12Cc3c(cc(OC)c(OC)c3OC)[C@H]1N(Cc1ccccc1)C(=O)c1ccccc12 | inconclusive: 23.1 µM [cytotoxic, single point] |
| CC1(C)OC(c2ccccc2)=C/C(=C/C=C2C(=O)NC(=S)NC2=O)O1 | inconclusive: 18.4 µM [cytotoxic, partial curve, poor fit] |
| CN1C(=O)C(c2ccccc2)C(=O)N(C)C1=O | inconclusive: 0.82 µM [rising, partial curve, poor fit] |
| O=C(CN1CCCCC1)c1ccccc1 | inactive |
| C[C@H]1CCC[C@H](O)CCCCCc2cc(O)cc(O)c2C(=O)O1 | inconclusive: 23.1 µM [cytotoxic, single point] |
| COc1cccc(C2SCC(=O)Nc3c2c(C)nn3-c2ccc(C)c(Cl)c2)c1OC (stereo unspecified) | inactive |
| CCCNC(=O)N1[C@H]2CC[C@@H]1C(C(=O)OC)=C(c1ccc(C(C)=O)cc1)C2 | inconclusive: 16.4 µM [rising, single point] |
| CN(C)C1(c2nnnn2CCOC(=O)Nc2ccc(Cl)cc2)CCCCC1 | inconclusive: 16.4 µM [cytotoxic, single point] |
| COc1ccc(-n2nnnc2C(c2ccccc2)N2CCC(n3c(=O)[nH]c4ccccc43)CC2)cc1 (stereo unspecified) | inconclusive: 16.4 µM [cytotoxic, single point] |
| Cn1ncnc2c(=O)n(C)c(=O)nc1-2 | active: 0.731 µM |
| CCN(CC)c1ccc(CNCCc2ccccc2F)cc1 | active: 20.6 µM |
| O=C(Cc1ccccc1)N1CCN(Cc2cccc(Br)c2)CC1 | inconclusive: 32.6 µM [cytotoxic, single point] |
| CN(C)c1ccc(N=Nc2ccccc2)cc1 | inconclusive: 29.1 µM [rising, single point] |
| Cc1cccc(CC(c2cccc(C)c2)N(C)C)c1 (stereo unspecified) | inactive |
| CC(C)C1(C)N=C(c2nc3ccccc3cc2C(=O)O)NC1=O (stereo unspecified) | inactive |
| CNC(=O)c1cccn(Cc2cccc(C(F)(F)F)c2)c1=O | inconclusive: 20.6 µM [cytotoxic, partial curve, poor fit] |
